{"sequences": {"note": "Sequences of proteins named here, by UniProt entry; tags and fusion partners are left off. A change or cut given only in a name is not applied to a line headed by its entry.", "UniProt P18054": "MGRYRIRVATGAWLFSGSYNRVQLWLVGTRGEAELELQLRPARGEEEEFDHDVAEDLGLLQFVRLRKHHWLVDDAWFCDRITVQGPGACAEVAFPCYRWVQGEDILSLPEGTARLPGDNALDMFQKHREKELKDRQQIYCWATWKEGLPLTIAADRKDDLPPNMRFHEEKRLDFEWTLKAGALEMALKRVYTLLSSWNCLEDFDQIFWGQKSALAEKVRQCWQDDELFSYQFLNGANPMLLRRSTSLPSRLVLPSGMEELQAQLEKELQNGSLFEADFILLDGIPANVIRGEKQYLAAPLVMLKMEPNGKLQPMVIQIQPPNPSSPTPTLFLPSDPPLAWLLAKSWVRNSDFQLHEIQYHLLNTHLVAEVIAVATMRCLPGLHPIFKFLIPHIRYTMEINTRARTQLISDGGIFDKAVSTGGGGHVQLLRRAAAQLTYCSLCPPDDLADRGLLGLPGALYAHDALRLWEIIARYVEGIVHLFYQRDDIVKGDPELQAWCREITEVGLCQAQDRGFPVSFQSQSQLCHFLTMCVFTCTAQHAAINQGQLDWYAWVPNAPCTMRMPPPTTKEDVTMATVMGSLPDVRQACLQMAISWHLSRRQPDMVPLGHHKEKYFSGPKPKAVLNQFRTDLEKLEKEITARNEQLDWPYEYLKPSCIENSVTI"}, "source": "PubChem BioAssay AID1671190", "about": "(National Center for Advancing Translational Sciences (NCATS), 2021)", "note": "In all, about 580,000 compounds went through this assay and about 6,100 (1.1%) were called active. The shares of active, inactive and inconclusive entries below differ from those in the screen. Calls come from the whole dose curve; as a rule, active = well fitted inhibition curve with a large enough effect; inconclusive = small, poorly fitted or top-dose-only effect, or another doubt; inactive = no such curve, though single readings can be large or run the other way. Potencies beside an inconclusive call are fits to weak or partial responses and may not hold up. % is set by controls: 0 for no effect and ±100 for the full control effect; potency is the fitted concentration of half-maximal effect.", "data": [{"target": "Polyunsaturated fatty acid lipoxygenase ALOX12 (Homo sapiens) (UniProt P18054)", "assay": "Primary qHTS assay for inhibitors of human arachidonate 12S-lipoxygenase (ALOX12): Round 2", "settings": "purified 12hLO, xylenol orange hydroperoxide absorbance; activity change, negative = inhibition: at 108 µM (top of the series) unless noted", "summary_of_the_method": "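Hydroperoxide product was detected by ferrous iron/xylenol orange as the 573 to 405 nm absorbance ratio. Arachidonic acid at 40 uM (final) was turned over for 30 min at room temperature by 150 nM human 12hLO, pH 7.0 Hepes buffer, after 15 min compound preincubation.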", "values": [{"smiles": "Cc1ccccc1-c1cc(C(=O)NCc2ccc(OC(F)(F)F)cc2)n(CC2CC(c3cccnc3)=NO2)n1", "note": "(stereo not given)", "activity change, negative = inhibition": "inactive: -28.9%"}, {"smiles": "O=C(c1n[nH]c2ccccc12)N1CCC(OCCOc2ccc(F)cc2)CC1", "activity change, negative = inhibition": "inactive: 14.6%"}, {"smiles": "O=C(CN1CCCN(c2ccc(C(F)(F)F)cn2)CC1)Nc1ccccc1Cl", "Potency": "inconclusive: 28.2 µM [inhibitor, partial curve, poor fit]"}, {"smiles": "CSc1nnc(NC(=O)c2cc(=O)c3ccccc3o2)s1", "Potency": "inconclusive: 126 µM [inhibitor, single point]"}, {"smiles": "O=C(c1ccccc1)N1CCN(Cc2ccccc2C(F)(F)F)CC1", "Potency": "inconclusive: 0.447 µM [inhibitor, full curve, poor fit]"}, {"smiles": "COc1cccc(C(=O)/C(=C/c2ccncc2)c2nc3ccccc3o2)c1", "Potency": "inconclusive: 25.1 µM [inhibitor, partial curve]"}, {"smiles": "CC(=O)NC(CC(=O)NCC(=O)Nc1ccc(F)c(F)c1)c1ccccc1", "note": "(stereo not given)", "activity change, negative = inhibition": "inactive: -14.8%"}, {"smiles": "CCCOc1ccc(C2C(C(=O)c3ccc(C)o3)=C(O)C(=O)N2Cc2ccco2)cc1", "note": "(stereo not given)", "Potency": "inconclusive: 50.1 µM [inhibitor, partial curve, poor fit]"}, {"smiles": "CS(=O)(=O)N1CCC(NS(=O)(=O)c2ccc(F)cc2Cl)CC1", "activity change, negative = inhibition": "inactive: -23.9%"}, {"smiles": "CCc1ccccc1NC(=S)NCCSc1ccc(Cl)cc1", "Potency": "active: 50.1 µM"}, {"smiles": "O=C(CNC(=O)c1cccc(F)c1)N/N=C/c1cc(Br)ccc1OCc1ccccc1", "activity change, negative = inhibition": "inactive: 2.1%"}, {"smiles": "Clc1ccc(/C=N/c2c(-c3ccco3)nc3ccccn23)cc1", "activity change, negative = inhibition": "inactive: 2.35%"}, {"smiles": "CCOC(=O)c1cc(-c2ccccc2)n(CC2CC(c3ccc(OC)cc3)=NO2)n1", "note": "(stereo not given)", "activity change, negative = inhibition": "inactive: 2.04%"}, {"smiles": "O=S(=O)(c1ccccc1)c1nc(-c2cccc(Cl)c2)oc1N1CCOCC1", "Potency": "inactive"}, {"smiles": "O=C(Cc1cccc(F)c1)NCCn1cccc1-c1nc(-c2ccc3c(c2)OCO3)no1", "activity change, negative = inhibition": "inactive: 24.3%"}, {"smiles": "COC(=O)c1cccc(NC(=S)N[C@@H]2C=C[C@@H](c3c(C)nn(-c4ccc(C(C)C)cc4)c3C)C2)c1", "Potency": "active: 44.7 µM"}, {"smiles": "Cc1ccccc1NS(=O)(=O)c1ccc(C(=O)N2CCN(S(=O)(=O)c3ccccc3)CC2)cc1", "Potency": "inconclusive: 112 µM [inhibitor, single point]"}, {"smiles": "O=C1CC(SC2=NCCS2)C(=O)N1c1ccc(Br)cc1", "note": "(stereo not given)", "Potency": "inconclusive: 56.2 µM [inhibitor, partial curve, poor fit]"}, {"smiles": "COCc1cc(CN2CCCC(C(=O)Nc3ccc(-c4ccco4)cc3)C2)ccc1OC", "note": "(stereo not given)", "activity change, negative = inhibition": "inactive: -25.4%"}, {"smiles": "CC(C)c1ccc(/C=C/C(=O)Nc2ccc(CN3CCOCC3)cc2)cc1", "activity change, negative = inhibition": "inactive: 146%"}, {"smiles": "CC(Nc1ccc(N2CCOCC2)cc1)C(=O)N1c2ccccc2CC1C", "note": "(stereo not given)", "Potency": "inconclusive: 35.5 µM [inhibitor, partial curve]"}, {"smiles": "COc1cc([N+](=O)[O-])cc(/C=N/NC(=O)c2cc(C)nc3ccccc23)c1O", "activity change, negative = inhibition": "inactive: 7.1%"}, {"smiles": "O=S(=O)(Nc1cccc(CO)c1)c1cccs1", "activity change, negative = inhibition": "inactive: -7.63%"}, {"smiles": "COc1ccc(NC(=O)CSc2ccccn2)cc1OC", "activity change, negative = inhibition": "inactive: 1.59%"}, {"smiles": "Cc1cc(F)ccc1NCc1ccccc1C#N", "Potency": "inconclusive: 44.7 µM [inhibitor, partial curve, poor fit]"}, {"smiles": "Fc1cccc(Cc2c(-c3ccco3)nc3c(Cl)cc(C(F)(F)F)cn23)c1", "Potency": "inconclusive: 79.4 µM [inhibitor, partial curve, poor fit]"}, {"smiles": "O=S(=O)(c1ccc(Cl)cc1)N1CCN(Cc2ccc(O)c3ncccc23)CC1", "activity change, negative = inhibition": "inactive: -15.1%"}, {"smiles": "O=C(O)Cn1cc(/C=N/Nc2ccc([N+](=O)[O-])cn2)c2ccccc21", "Potency": "inconclusive: 10 µM [inhibitor, partial curve, poor fit]"}, {"smiles": "O=[N+]([O-])c1ccc(-c2cn3ccccc3n2)cc1", "activity change, negative = inhibition": "inactive: 372%"}, {"smiles": "CCCCCCCNCc1ccc(C)s1", "activity change, negative = inhibition": "inconclusive: -39.6% [inhibitor]"}, {"smiles": "CCCCc1ccc(NC(=S)NCCc2ccc(F)cc2)cc1", "Potency": "inconclusive: 44.7 µM [inhibitor, partial curve, poor fit]"}, {"smiles": "CCNC(=S)N/N=C/c1cccc(/C=N/NC(=S)NCC)c1", "activity change, negative = inhibition": "inactive: -6.75%"}, {"smiles": "CN(C)S(=O)(=O)c1ccc(S(=O)(=O)N2CCN(Cc3cccc4cccnc34)CC2)cc1", "activity change, negative = inhibition": "inactive: 3.36%"}, {"smiles": "CCC1=Nc2cc(C(=O)NCCCOC)ccc2Sc2ccc(Br)cc21", "Potency": "inconclusive: 100 µM [inhibitor, partial curve, poor fit]"}, {"smiles": "O=C(COc1ccc2ccc(=O)oc2c1)NC1CCS(=O)(=O)C1", "note": "(stereo not given)", "Potency": "inconclusive: 89.1 µM [inhibitor, partial curve, poor fit]"}]}]}
